Results published in PMC11762487.
These are yes or no findings as the source states them, for the method shown. Binding seen in cells or lysates may run through a third protein. Some entries that bind do so weakly or less than the wild type.

By UniProt entry, the sequences of proteins in these tests, tags left out.
UniProt Q9UKB1: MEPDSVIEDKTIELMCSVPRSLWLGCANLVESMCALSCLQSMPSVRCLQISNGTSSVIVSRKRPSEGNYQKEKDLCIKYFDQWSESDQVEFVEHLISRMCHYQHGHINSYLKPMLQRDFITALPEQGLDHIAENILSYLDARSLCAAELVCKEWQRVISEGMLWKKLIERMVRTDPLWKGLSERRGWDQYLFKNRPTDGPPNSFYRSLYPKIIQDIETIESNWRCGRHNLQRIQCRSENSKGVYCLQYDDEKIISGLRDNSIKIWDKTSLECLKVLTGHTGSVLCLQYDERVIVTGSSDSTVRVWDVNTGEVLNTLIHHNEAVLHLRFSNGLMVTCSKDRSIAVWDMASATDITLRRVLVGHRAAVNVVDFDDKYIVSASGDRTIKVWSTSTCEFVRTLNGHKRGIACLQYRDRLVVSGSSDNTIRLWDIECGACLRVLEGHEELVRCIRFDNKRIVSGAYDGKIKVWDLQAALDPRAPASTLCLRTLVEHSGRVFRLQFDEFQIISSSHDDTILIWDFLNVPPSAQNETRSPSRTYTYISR

Biological target: T1, Splicing factor proline- and glutamine-rich (SFPQ) (human (endogenous in HEK293T)) (UniProt P23246)
T1 sequence: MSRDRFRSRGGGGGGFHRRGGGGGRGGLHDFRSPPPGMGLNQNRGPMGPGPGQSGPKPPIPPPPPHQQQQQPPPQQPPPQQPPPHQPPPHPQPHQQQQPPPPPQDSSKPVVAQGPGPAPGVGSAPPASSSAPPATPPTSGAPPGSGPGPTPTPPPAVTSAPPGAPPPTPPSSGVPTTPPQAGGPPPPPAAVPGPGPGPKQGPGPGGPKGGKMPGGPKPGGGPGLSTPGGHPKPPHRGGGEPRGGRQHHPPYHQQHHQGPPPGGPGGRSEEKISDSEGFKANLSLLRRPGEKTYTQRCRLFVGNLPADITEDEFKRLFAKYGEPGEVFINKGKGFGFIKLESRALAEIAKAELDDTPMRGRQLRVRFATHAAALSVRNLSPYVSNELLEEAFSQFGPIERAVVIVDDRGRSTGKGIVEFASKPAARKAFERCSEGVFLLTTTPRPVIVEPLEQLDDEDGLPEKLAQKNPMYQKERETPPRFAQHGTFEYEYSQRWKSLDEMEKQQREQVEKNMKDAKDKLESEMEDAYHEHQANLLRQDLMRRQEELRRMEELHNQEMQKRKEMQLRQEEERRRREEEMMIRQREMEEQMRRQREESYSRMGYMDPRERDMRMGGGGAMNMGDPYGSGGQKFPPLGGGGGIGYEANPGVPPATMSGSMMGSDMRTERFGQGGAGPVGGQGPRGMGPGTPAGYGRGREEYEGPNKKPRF
Assay: co-IP; co-IP in HEK293T cells; also after coculture with exosomes from circMAN1A2-overexpressing HGC27 cells (binding decreased) or sh-circMAN1A2 HGC27 cells (binding increased)

F-box and WD repeat domain containing 11 (FBXW11) (from UniProt Q9UKB1 1-542)
binding: binds
